In PubChem BioAssay AID256 (DTP/NCI, 2004) one finds survivor count and T/C data, which are given here for 25 compounds.

The test concerns CD2F1 mice, L1210 leukemia ip, survival T/C. Description: NCI In Vivo Anticancer Drug Screen. Data for tumor model L1210 Leukemia (intraperitoneal) in CD2F1 (CDF1) mice. The note with it: higher T/C = longer survival. The procedure, abridged:
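Transplantable tumor in mice; compound-treated vs vehicle-treated groups. Read-out = treated/control ratio of the measured endpoint.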

[1] abbreviates: T/C endpoint: mean survival time, dose: 400.0 mg/kg/injection, schedule: Q01DX009 (ip), vehicle: saline with Tween-80.
Where [2] appears, read: T/C endpoint: mean survival time, dose: 100.0 mg/kg/injection, schedule: Q01DX009 (ip), vehicle: saline with Tween-80.
The mark [3] stands for this setting: T/C endpoint: mean survival time, dose: 200.0 mg/kg/injection, schedule: Q04DX003 (ip), vehicle: saline with Tween-80.
The mark [4] stands for this setting: T/C endpoint: mean survival time, dose: 100.0 mg/kg/injection, schedule: Q01DX009 (ip), vehicle: water.
[5] abbreviates: T/C endpoint: mean survival time, dose: 400.0 mg/kg/injection, schedule: Q04DX003 (ip), vehicle: saline.
[6] abbreviates: T/C endpoint: mean survival time, dose: 400.0 mg/kg/injection, schedule: Q04DX003 (ip), vehicle: saline with Tween-80.
Where [7] appears, read: T/C endpoint: mean survival time, dose: 400.0 mg/kg/injection, schedule: Q01DX009 (ip), vehicle: saline.

The list does not hold the whole screen: it is rich in T/C values a quarter to a half above the control, in often repeated tests (any T/C) and in doses without a T/C. Further doses and runs are listed elsewhere. T/C: endpoint of the treated group in % of that of the vehicle group. Some entries give survivors of the animals treated and no T/C: the source files T/C as zero there, which appears to mark a toxic dose or a test without result, not a measured value. Some survivor counts are full or nearly so, which does not show that the dose was tolerated: survival well below the control is almost never listed, so the zero probably covers shortened survival too. Survivors were counted at the toxicity check, usually on the fifth day, unless a day is given; later deaths do not show. Schedules are NCI's codes, read here as Q, the interval in days (D) or hours (H), X, the number of doses. Some entries were tested several times; the values are given in rising order. Some structures stand for samples that the source files as different forms (salt, stereo form or complex); doses refer to the form tested. Where survival is the endpoint, the PubChem record calls one and a half times the control and up active, and a quarter to a half above the control has no call in these data; cut-offs in other NCI protocols can differ.

Take `C=COCC(C)C` (tested in a mixture with another compound): the survivor count reads like this: (T/C endpoint: mean survival time, dose: 6.25 mg/kg/injection, schedule: Q04DX003 (ip), vehicle: other) 2 of 6; (T/C endpoint: mean survival time, dose: 25.0 mg/kg/injection, schedule: Q04DX003 (ip), vehicle: saline with Tween-80) 5 of 6; (T/C endpoint: mean survival time, dose: 37.5 mg/kg/injection, schedule: Q01DX009 (ip), vehicle: saline) 0 of 6; (T/C endpoint: mean survival time, dose: 50.0 mg/kg/injection, schedule: Q04DX003 (ip), vehicle: saline with Tween-80) 0 of 6; (T/C endpoint: mean survival time, dose: 75.0 mg/kg/injection, schedule: Q01DX009 (ip), vehicle: saline) 0 of 6 and 2 of 6; (T/C endpoint: mean survival time, dose: 150.0 mg/kg/injection, schedule: Q01DX009 (ip), vehicle: saline) 0 of 6.

With `O=C(Nc1ccc(Nc2ccccc2)cc1)Nc1cc([N+](=O)[O-])ccc1Cl`, the survivor count (T/C endpoint: mean survival time, dose: 200.0 mg/kg/injection, schedule: Q01DX001 (ip), vehicle: saline with Tween-80) is 6 of 6.

As for `CN(Cc1ccccc1)N=Nc1ccccc1`, under “T/C endpoint: mean survival time, dose: 300.0 mg/kg/injection, schedule: Q01DX009 (ip), vehicle: Klucel (hydroxypropylcellulose) (HPC)”, the survivor count is on record as 2 of 6.

With `[Cl][Gd]([Cl])[Cl]`, the survivor count under setting [1] was 4 of 6.

As for `C=CC1(C)CCN=C(CCN2CCCCC2)O1` (centres undefined), under “T/C endpoint: mean survival time, dose: 400.0 mg/kg/injection, schedule: Q01DX001 (ip), vehicle: saline sonified”, the survivor count was 0 of 6.

In the case of `O=C(/C=C/c1ccccn1)c1ccccc1`, where the note is “T/C endpoint: mean survival time, dose: 400.0 mg/kg/injection, schedule: Q04DX002 (ip), vehicle: Klucel (hydroxypropylcellulose) (HPC)”, the survivor count was 1 of 3.

`CC(=O)OCC1OC(n2cc(F)c(=O)[nH]c2=O)CC1OC(C)=O` (centres undefined): the T/C is 132 % of control (T/C endpoint: mean survival time, dose: 100.0 mg/kg/injection, schedule: Q01DX009 (ip), vehicle: other) and 131 % of control (T/C endpoint: mean survival time, dose: 400.0 mg/kg/injection, schedule: Q01DX009 (ip), vehicle: other).

With `CCCCCCCCCc1ccc(OCCOCCOCCOCCOCCOCCOCCOCCOCCOC(C)N2CCCC2=O)cc1` (centres undefined), the survivor count is given as 2 of 6 (T/C endpoint: mean survival time, dose: 50.0 mg/kg/injection, schedule: Q01DX009 (ip), vehicle: saline with Tween-80); 0 of 6 under setting [2]; 0 of 6 under setting [3].

On to `CN(C)C1CC2C=CC1C1C=CC21` (centres undefined), for which, under setting [4], the survivor count is on record as 2 of 6.

For the compound `CCCCCC(C)N` (centres undefined), the survivor count was 2 of 4 (T/C endpoint: mean survival time, dose: 100.0 mg/kg/injection, schedule: Q01DX001 (ip), vehicle: saline); 3 of 6 (T/C endpoint: mean survival time, dose: 100.0 mg/kg/injection, schedule: Q04DX003 (ip), vehicle: saline); 1 of 4 (T/C endpoint: mean survival time, dose: 200.0 mg/kg/injection, schedule: Q01DX001 (ip), vehicle: saline); 0 of 6 (T/C endpoint: mean survival time, dose: 200.0 mg/kg/injection, schedule: Q04DX003 (ip), vehicle: saline); 0 of 4 (T/C endpoint: mean survival time, dose: 400.0 mg/kg/injection, schedule: Q01DX001 (ip), vehicle: saline); 0 of 6 under setting [5].

As for `O=C(O)CCC(=O)CCC(=O)c1ccccc1`, the survivor count under setting [3] was 6 of 6 and the survivor count under setting [6] is listed as 6 of 6.

In the case of `CC(C)(O)CCNc1ncnc2c1ncn2C1OC(CO)C(O)C1O` (centres undefined), the T/C (T/C endpoint: mean survival time, dose: 100.0 mg/kg/injection, schedule: Q01DX005 (ip), vehicle: water) was 145 % of control. Besides, the survivor count runs as follows: (T/C endpoint: mean survival time, dose: 200.0 mg/kg/injection, schedule: Q01DX005 (ip), vehicle: water) 3 of 6 and 5 of 6; (T/C endpoint: mean survival time, dose: 400.0 mg/kg/injection, schedule: Q01DX005 (ip), vehicle: water) 0 of 6.

On to `CCCCCCCCCCCCCCCC(=O)N(CCCN)C(C)(C)CCC(C)(C)N(CCCN)C(=O)CCCCCCCCCCCCCCC`, for which the survivor count by setting is: (T/C endpoint: mean survival time, dose: 50.0 mg/kg/injection, schedule: Q01DX009 (ip), vehicle: water) 5 of 6; under setting [4], 1 of 6; (T/C endpoint: mean survival time, dose: 200.0 mg/kg/injection, schedule: Q01DX009 (ip), vehicle: water) 0 of 6; (T/C endpoint: mean survival time, dose: 400.0 mg/kg/injection, schedule: Q01DX009 (ip), vehicle: water) 0 of 6.

In the case of `CCN1CC1` (tested in a mixture with another compound), the survivor count reads like this: (T/C endpoint: mean survival time, dose: 21.3 mg/kg/injection, schedule: Q04DX003 (ip), vehicle: Klucel (hydroxypropylcellulose) (HPC)) 0 of 6; (T/C endpoint: mean survival time, dose: 35.0 mg/kg/injection, schedule: Q04DX003 (ip), vehicle: acetone) 2 of 6; (T/C endpoint: mean survival time, dose: 50.0 mg/kg/injection, schedule: Q04DX003 (ip), vehicle: acetone) 0 of 6; (T/C endpoint: mean survival time, dose: 75.0 mg/kg/injection, schedule: Q04DX003 (ip), vehicle: acetone) 0 of 6.

For `CC(=O)OCC1OC([S][Sb]([CH3])[CH3])C(OC(C)=O)C(OC(C)=O)C1OC(C)=O` (centres undefined), the survivor count (T/C endpoint: mean survival time, dose: 100.0 mg/kg/injection, schedule: Q01DX009 (ip), vehicle: Klucel (hydroxypropylcellulose) (HPC)) was 0 of 3 and the survivor count (T/C endpoint: mean survival time, dose: 200.0 mg/kg/injection, schedule: Q01DX009 (ip), vehicle: Klucel (hydroxypropylcellulose) (HPC)) is on record as 0 of 3.

With `CNCCNc1ccc(NCCNC)c2c1C(=O)c1ccccc1C2=O`, the T/C (T/C endpoint: mean survival time, dose: 1.0 mg/kg/injection, schedule: Q01DX009 (ip), vehicle: acid diluted with saline) was 134 % of control; the T/C (T/C endpoint: mean survival time, dose: 2.0 mg/kg/injection, schedule: Q01DX009 (ip), vehicle: acid diluted with saline, evaluated on day 30) was 146 % of control; the T/C (T/C endpoint: mean survival time, dose: 2.0 mg/kg/injection, schedule: Q01DX009 (ip), vehicle: acid diluted with saline, evaluated on day 35) is 134 % of control; the T/C (T/C endpoint: mean survival time, dose: 16.0 mg/kg/injection, schedule: Q01DX009 (ip), vehicle: acid diluted with saline) was 140 % of control. Moreover, where the note is “T/C endpoint: mean survival time, dose: 32.0 mg/kg/injection, schedule: Q01DX009 (ip), vehicle: acid diluted with saline”, the survivor count is 5 of 6.

For the compound `C[PH+](C)C.C[PH+](C)C.[Au]`, the survivor count (T/C endpoint: median survival time, dose: 20.0 mg/kg/injection, schedule: Q01DX009 (ip), vehicle: saline) is given as 5 of 10.

On to `NS(=O)(=O)c1ccc(Cl)c2ccccc12`, for which, where the note is “T/C endpoint: mean survival time, dose: 400.0 mg/kg/injection, schedule: Q01DX001 (ip), vehicle: saline with Tween-80”, the survivor count was 3 of 6.

`COC1C(O)C(C)OC(O[C@@H]2C[C@H]3CC[C@@H]4[C@H](CC[C@]5(C)[C@@H](C6=CC(=O)OC6)CC[C@]45O)[C@@]3(C)[C@H](O)C2)C1O` (some centres undefined): under “T/C endpoint: mean survival time, dose: 300.0 mg/kg/injection, schedule: Q01DX001 (ip), vehicle: other”, the survivor count was 0 of 6.

For the compound `NC(=O)C[P+](c1ccccc1)(c1ccccc1)c1ccccc1`, the survivor count is recorded as 0 of 3 under setting [3] and 0 of 3 under setting [6].

Turning to `Cc1cc(Nc2ccccc2)nc(C)n1`, the survivor count reads like this: (T/C endpoint: mean survival time, dose: 50.0 mg/kg/injection, schedule: Q04DX002 (ip), vehicle: saline with Tween-80) 0 of 3; (T/C endpoint: mean survival time, dose: 100.0 mg/kg/injection, schedule: Q04DX002 (ip), vehicle: saline with Tween-80) 0 of 3; (T/C endpoint: mean survival time, dose: 200.0 mg/kg/injection, schedule: Q04DX002 (ip), vehicle: saline with Tween-80) 3 of 3; (T/C endpoint: mean survival time, dose: 400.0 mg/kg/injection, schedule: Q04DX002 (ip), vehicle: saline with Tween-80) 1 of 3.

Consider `Clc1ccc2[nH]c3nc4ccccc4nc3c2c1`, for which the survivor count under setting [7] is listed as 4 of 6.

In the case of `COc1cc(-c2ccc(N=Nc3c(O)ccc4ccccc34)c(OC)c2)ccc1N=Nc1ccc2c(S(=O)(=O)O)cc(S(=O)(=O)O)c(N)c2c1O`, the survivor count under setting [5] is 3 of 6.

Regarding `O=C(CCl)Nc1cc(C(F)(F)F)ccc1Cl`, the survivor count by setting is: under setting [2], 2 of 6; (T/C endpoint: mean survival time, dose: 200.0 mg/kg/injection, schedule: Q01DX009 (ip), vehicle: saline with Tween-80) 1 of 6; under setting [1], 2 of 6.

On to `O=S(=O)(O)NC1CCCCC1`, for which the survivor count by setting is: (T/C endpoint: mean survival time, dose: 200.0 mg/kg/injection, schedule: Q01DX009 (ip), vehicle: saline) 0 of 6; under setting [7], 0 of 6.
